Consider one molecule from paper PMC6945068.

The test has as its target T1, MBP-fused Apc1-loop^500 wild type (residues 515-584 of Xenopus tropicalis Apc1) (Xenopus tropicalis) (UniProt Q08D52).
T1 sequence: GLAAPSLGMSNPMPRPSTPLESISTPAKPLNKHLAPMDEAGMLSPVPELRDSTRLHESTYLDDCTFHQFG
As to the kind of experiment: pull-down; MBP-fused Apc1-loop^500 fragments on amylose beads; ^35S-labelled in vitro-translated PP2A B subunits in anaphase extract (interphase extract with cyclin B∆167), 23°C, 60 min; washes in XB^CSF with 0.01% NP-40; autoradiography; only the target purified.

These are yes or no findings as the source states them, for the method shown. In cells and extracts the contact can be indirect. Tags and fused reporters may be left off the sequences shown.

B1: ^35S-labelled in vitro-translated Flag-B55δ (X. laevis PP2A regulatory B subunit) (protein, UniProt Q7ZX64 1-447)
chain: MAGVGGGNDFQWCFSQVKGAIDEDVAEADIISTVEFNCSGELLATGDKGGRVVIFQREQENKSRPHSRGEYNVYSTFQSHEPEFDYLKSLEIEEKINKIRWLPQQNAANFLLSTNDKTIKLWKISERDKRVEGYNLKDDDGRLRDPFRITSLRVPILKPMDLMVEASPRRIFANAHTYHINSISVNSDHQTYLSADDLRVNLWHLEITDRSFNIVDIKPANMEELTEVITAAEFHPHHCHMFVYSSSKGTIRLCDMRDAALCDRHSKFFEEPEDPSSRSFFSEIISSISDVKFSHSGRYMMTRDYLSVKVWDLNMESRPVETYQVHEYLRSKLCSLYENDCIFDKFECCWNGSDSSIMTGSYNNFFRMFDRNTRRDITLEASRESSKPRATLKPRKVCTGGKRKKDEINVDSLDFNKKILHTAWHPTDNIIAVAATNNLYIFQDKVN
modifications: [^35S]methionine label
As for B1, the binding result is given as “no binding”.
